# Measurements published in article PMC2949399, “Gene Expression Signature-Based Screening Identifies New Broadly Effective Influenza A Antivirals” (PLoS ONE, 2010).
# Assay: in vitro
# Conditions: human
compound,measurement,value
"Cc1cc(/C=C/c2ccc3cc(N(C)C)ccc3[n+]2C)c(C)n1-c1ccccc1 [Pyrvinium, pyrvinium]",CC50,854 µM
